Results are given in words; binding and its absence hold for the method and conditions named. Binding seen in cells or lysates may run through a third protein. Some binding calls cover weakened binding; strength is not graded here.
Tests used:
[1] = molecular target: endogenous LRRK2 (Leucine-rich repeat kinase 2) (mouse (endogenous in mouse forebrain and mouse cortical neurons)) (UniProt Q5S006); assay: co-IP; endogenous LRRK2 precipitated from adult mouse forebrain lysate (1 mg protein; 150 mM NaCl, 2 mM EDTA, 50 mM Tris-HCl, 1% NP-40, 0.25% sodium deoxycholate, pH 7.4) with 4 µg rat anti-LRRK2 (LANK/24D8) and protein G-Sepharose; western blot
[2] = molecular target: Strep-FLAG LRRK2ΔWD40 (human) (UniProt Q5S007); assay: pull-down; Strep-FLAG LRRK2 variants over-expressed in N2A cells, 48 h after transfection, precipitated on Strep-Tactin Superflow resin 2 h at 4 °C; washes with 300 mM NaCl, 50 mM Tris-HCl pH 7.4; interacting proteins by western blot
[3] = molecular target: Strep-FLAG LRRK2 full-length wild-type (human) (UniProt Q5S007); assay: as above
[4] = molecular target: Strep-FLAG LRRK2 full-length G2385R (human) (UniProt Q5S007); assay: as above
[5] = molecular target: endogenous LRRK2 (Leucine-rich repeat kinase 2) (mouse (endogenous in mouse forebrain and mouse cortical neurons)) (UniProt Q5S006); assay: co-IP; endogenous LRRK2 precipitated from DIV14 mouse cortical cultures incubated with 2 or 10 mM CaCl2 for 30 minutes; rat anti-LRRK2 (LANK/24D8), protein G-Sepharose; western blot

The chains behind the UniProt entries cited, without tags or fusion partners. Where a name states a change or a piece, a line headed by the entry shows the natural chain unless it says otherwise. Residues count along the entry.
UniProt Q5S006: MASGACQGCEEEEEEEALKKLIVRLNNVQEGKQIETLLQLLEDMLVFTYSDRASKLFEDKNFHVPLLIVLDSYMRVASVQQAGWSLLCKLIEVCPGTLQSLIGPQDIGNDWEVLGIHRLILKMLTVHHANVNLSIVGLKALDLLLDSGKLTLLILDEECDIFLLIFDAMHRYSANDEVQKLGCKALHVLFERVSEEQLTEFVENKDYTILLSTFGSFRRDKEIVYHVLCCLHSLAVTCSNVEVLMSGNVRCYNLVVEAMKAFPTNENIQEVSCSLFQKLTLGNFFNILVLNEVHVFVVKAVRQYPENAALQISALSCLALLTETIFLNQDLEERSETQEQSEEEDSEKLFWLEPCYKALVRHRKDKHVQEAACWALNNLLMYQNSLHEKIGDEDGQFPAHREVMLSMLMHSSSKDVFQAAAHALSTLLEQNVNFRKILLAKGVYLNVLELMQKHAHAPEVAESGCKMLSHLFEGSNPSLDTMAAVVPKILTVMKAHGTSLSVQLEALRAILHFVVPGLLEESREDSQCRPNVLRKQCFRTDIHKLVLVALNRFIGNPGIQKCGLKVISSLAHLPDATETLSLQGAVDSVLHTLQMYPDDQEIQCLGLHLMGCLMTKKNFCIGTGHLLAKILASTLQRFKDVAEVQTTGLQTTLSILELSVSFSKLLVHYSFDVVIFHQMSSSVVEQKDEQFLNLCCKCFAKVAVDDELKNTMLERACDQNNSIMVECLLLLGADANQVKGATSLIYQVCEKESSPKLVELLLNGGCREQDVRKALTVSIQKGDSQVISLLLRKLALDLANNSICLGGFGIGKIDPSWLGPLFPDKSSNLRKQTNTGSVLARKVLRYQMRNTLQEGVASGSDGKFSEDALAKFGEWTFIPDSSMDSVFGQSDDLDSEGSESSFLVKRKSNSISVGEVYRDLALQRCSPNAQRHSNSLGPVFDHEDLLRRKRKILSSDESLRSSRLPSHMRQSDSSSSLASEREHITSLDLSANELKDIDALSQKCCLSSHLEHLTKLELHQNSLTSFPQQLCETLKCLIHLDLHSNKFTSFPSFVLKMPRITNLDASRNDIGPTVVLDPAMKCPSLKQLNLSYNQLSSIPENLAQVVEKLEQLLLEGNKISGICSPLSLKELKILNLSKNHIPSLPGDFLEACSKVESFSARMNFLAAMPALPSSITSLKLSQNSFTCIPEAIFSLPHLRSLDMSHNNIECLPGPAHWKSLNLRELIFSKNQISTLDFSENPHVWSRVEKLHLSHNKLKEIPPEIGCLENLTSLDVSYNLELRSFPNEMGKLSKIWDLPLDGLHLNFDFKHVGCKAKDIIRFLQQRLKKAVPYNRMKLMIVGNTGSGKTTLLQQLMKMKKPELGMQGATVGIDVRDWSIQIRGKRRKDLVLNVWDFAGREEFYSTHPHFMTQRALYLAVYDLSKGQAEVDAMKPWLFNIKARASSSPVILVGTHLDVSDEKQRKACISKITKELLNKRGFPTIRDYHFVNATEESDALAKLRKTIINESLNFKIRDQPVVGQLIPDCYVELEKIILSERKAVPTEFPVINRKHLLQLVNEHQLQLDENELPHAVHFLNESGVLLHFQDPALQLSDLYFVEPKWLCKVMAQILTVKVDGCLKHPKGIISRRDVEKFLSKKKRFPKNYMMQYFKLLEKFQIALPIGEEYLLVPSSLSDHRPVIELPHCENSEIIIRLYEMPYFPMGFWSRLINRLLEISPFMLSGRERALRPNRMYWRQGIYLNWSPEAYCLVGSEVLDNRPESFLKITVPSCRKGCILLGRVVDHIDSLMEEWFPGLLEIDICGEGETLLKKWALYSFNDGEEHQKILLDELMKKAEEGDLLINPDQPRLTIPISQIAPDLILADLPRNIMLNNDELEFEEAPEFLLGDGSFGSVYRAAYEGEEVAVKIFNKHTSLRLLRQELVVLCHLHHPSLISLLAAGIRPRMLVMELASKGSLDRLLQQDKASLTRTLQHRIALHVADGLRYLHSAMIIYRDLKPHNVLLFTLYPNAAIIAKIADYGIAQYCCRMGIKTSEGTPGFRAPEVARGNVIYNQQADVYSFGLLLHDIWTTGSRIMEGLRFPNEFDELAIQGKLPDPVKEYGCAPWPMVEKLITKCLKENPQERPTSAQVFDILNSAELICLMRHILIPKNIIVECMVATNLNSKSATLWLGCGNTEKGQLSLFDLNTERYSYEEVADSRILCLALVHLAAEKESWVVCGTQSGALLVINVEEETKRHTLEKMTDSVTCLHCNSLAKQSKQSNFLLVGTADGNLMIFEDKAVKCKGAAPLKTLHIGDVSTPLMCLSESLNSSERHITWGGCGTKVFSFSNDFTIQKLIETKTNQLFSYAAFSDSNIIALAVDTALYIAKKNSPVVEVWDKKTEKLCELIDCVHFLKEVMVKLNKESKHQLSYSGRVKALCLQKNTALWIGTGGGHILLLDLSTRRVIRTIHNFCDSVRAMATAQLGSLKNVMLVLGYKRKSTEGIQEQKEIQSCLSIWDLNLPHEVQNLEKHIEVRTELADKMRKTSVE
UniProt Q5S007: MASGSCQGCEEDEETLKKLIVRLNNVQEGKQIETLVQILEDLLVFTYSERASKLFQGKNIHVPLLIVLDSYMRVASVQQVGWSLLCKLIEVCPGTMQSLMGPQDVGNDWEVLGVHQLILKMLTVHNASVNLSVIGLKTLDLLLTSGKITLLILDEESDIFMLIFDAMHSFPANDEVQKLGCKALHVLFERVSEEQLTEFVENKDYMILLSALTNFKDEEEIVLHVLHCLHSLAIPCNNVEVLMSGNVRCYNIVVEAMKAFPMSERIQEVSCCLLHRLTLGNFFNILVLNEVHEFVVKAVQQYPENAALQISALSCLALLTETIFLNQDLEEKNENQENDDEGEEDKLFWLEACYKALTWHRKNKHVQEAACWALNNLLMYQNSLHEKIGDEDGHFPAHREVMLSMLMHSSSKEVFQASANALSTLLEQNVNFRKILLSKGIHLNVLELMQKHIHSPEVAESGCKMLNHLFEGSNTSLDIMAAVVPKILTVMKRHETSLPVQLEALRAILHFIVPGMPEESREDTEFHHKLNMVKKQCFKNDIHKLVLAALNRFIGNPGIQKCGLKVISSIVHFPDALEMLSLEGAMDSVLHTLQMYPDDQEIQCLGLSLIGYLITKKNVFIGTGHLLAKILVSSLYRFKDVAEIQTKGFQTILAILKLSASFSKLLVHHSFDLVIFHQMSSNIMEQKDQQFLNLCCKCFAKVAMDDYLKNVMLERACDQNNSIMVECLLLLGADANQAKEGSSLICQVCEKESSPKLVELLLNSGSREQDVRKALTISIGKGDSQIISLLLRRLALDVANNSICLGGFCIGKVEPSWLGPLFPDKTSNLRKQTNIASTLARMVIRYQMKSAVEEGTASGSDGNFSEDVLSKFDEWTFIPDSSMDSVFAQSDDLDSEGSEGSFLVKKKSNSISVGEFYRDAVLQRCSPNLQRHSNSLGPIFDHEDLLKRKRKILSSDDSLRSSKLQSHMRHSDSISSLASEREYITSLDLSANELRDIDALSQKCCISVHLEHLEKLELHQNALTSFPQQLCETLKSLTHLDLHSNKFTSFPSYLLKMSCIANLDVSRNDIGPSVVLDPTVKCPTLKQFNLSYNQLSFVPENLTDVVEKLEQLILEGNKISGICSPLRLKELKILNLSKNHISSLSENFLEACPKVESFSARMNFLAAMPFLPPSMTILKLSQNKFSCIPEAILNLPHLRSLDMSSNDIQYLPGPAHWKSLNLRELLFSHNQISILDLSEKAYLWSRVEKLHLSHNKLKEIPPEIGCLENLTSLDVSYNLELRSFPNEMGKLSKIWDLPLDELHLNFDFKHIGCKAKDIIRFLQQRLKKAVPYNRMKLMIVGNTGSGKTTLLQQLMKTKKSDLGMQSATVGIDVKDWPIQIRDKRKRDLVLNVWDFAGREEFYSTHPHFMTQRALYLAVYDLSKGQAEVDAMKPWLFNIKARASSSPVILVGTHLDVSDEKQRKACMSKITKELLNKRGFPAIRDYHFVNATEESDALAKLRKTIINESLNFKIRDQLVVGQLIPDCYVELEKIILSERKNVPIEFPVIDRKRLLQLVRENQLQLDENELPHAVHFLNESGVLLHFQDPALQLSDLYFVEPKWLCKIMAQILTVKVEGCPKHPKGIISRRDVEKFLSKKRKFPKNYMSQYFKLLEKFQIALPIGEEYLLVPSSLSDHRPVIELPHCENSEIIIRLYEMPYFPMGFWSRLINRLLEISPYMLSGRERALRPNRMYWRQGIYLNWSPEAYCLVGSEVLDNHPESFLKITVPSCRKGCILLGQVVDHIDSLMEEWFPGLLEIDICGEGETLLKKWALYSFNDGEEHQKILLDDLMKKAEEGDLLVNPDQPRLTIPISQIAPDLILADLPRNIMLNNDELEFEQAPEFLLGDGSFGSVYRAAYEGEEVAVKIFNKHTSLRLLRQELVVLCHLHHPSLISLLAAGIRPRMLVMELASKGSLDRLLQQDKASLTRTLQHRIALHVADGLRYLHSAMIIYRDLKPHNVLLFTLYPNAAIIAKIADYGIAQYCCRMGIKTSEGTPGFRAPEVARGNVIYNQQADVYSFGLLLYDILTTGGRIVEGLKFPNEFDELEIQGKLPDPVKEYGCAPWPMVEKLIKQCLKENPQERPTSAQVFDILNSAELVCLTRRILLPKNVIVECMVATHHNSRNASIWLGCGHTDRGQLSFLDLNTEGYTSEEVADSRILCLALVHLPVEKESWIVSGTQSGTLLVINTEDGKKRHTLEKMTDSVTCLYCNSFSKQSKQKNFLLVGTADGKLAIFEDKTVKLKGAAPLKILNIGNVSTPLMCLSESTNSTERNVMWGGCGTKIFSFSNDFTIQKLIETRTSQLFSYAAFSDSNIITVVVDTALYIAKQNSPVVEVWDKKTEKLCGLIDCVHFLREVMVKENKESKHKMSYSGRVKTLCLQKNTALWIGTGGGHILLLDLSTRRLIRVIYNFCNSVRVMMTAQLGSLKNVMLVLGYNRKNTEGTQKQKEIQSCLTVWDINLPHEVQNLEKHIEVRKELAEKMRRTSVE
Strep-FLAG LRRK2ΔWD40: residues 1-2141 of Q5S007
UniProt P54285: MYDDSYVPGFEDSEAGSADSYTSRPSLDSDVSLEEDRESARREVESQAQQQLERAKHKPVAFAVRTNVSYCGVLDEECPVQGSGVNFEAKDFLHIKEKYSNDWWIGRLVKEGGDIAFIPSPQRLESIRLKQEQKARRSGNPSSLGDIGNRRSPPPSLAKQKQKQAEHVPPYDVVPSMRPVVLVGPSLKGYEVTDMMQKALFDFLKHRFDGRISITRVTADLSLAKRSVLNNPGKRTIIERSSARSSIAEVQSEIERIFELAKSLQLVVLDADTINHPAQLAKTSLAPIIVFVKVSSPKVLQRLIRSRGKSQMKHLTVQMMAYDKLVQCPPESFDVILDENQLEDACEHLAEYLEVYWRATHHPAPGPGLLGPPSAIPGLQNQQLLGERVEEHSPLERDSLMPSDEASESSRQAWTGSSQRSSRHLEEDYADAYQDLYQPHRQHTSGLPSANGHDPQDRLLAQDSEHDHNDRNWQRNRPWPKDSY

Measured: binding

β3-CaV 2.1 channel subunit (from UniProt P54285 1-484)
binds: [1] | [2] | [3]

synapsin I (from UniProt O88935 1-706)
not listed: [2]
binds: all other assays above
